# According to PMC5370022:
# Sequences of proteins named here, by UniProt entry; tags and fusion partners are left off.
# UniProt P42336: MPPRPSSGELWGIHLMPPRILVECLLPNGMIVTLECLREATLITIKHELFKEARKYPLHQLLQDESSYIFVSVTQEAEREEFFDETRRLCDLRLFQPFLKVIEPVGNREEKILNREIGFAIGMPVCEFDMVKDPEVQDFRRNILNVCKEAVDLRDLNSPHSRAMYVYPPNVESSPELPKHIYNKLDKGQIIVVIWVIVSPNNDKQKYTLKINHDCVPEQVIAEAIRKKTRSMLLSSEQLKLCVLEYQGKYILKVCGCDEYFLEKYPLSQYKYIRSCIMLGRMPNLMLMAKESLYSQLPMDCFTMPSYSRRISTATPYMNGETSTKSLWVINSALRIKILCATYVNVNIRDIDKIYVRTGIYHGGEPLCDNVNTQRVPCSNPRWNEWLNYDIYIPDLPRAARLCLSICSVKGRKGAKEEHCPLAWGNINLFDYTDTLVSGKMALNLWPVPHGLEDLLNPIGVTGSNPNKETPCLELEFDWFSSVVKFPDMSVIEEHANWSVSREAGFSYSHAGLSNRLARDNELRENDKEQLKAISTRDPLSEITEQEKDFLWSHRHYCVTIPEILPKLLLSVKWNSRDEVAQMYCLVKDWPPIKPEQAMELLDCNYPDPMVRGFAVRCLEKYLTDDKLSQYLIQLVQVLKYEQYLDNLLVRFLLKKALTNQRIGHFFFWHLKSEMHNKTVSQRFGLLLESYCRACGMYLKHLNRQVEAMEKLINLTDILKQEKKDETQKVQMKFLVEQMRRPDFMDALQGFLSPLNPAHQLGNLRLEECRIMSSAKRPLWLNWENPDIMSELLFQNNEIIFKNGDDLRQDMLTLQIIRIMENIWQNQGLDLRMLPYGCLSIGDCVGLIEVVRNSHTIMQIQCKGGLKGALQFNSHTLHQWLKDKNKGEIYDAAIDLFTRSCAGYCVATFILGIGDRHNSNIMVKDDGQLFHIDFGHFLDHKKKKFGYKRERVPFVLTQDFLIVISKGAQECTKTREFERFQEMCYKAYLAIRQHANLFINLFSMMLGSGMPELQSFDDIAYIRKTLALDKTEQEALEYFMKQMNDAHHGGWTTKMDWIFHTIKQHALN
# These are yes or no findings as the source states them, for the method shown. Binding seen in cells or lysates may run through a third protein. Some binding calls cover weakened binding; strength is not graded here.
# B1: Derlin-1 (protein, UniProt Q9BUN8 1-251)
# chain: MSDIGDWFRSIPAITRYWFAATVAVPLVGKLGLISPAYLFLWPEAFLYRFQIWRPITATFYFPVGPGTGFLYLVNLYFLYQYSTRLETGAFDGRPADYLFMLLFNWICIVITGLAMDMQLLMIPLIMSVLYVWAQLNRDMIVSFWFGTRFKACYLPWVILGFNYIIGGSVINELIGNLVGHLYFFLMFRYPMDLGGRNFLSTPQFLYRWLPSRRGGVSGFGVPPASMRRAADQNGGGGRHNWGQGFRLGDQ
# Biological target: PI3K p110α (human (endogenous in T24 and 5637)) (UniProt P42336)
# Assay: co-IP; antibodies on magnetic beads (Bio-Rad SureBeads) incubated with extracts of T24 and 5637 cells, eluate analysed by western blot; done in both directions (Derlin-1 and p110α immune complexes); Derlin-1 siRNA decreased the interaction
binder,measurement,value
B1,binding,binds
